Data: publication PMC3009721
No constants are given. Whether binding was seen depends on the method and setting. For some of these results: Binding seen in cells or lysates may run through a third protein. Some entries that bind do so weakly or less than the wild type.

Amino acid sequences for entries named in this document (tags omitted).
UniProt Q39026: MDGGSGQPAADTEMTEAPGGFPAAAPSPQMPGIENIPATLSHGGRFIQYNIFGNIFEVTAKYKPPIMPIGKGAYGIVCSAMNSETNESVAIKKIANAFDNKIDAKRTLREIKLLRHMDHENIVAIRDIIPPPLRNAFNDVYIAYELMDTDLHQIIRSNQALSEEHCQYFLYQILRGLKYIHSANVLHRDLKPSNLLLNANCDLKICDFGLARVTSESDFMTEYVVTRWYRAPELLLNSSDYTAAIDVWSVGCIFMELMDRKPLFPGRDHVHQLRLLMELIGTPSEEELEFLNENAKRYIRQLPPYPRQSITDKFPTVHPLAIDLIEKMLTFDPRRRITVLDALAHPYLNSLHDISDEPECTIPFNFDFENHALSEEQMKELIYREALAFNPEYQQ

T1: AP2C3 (Arabidopsis protein phosphatase 2C) in pBD-GAL4cam (Arabidopsis) (UniProt Q9XEE8)
T1 sequence: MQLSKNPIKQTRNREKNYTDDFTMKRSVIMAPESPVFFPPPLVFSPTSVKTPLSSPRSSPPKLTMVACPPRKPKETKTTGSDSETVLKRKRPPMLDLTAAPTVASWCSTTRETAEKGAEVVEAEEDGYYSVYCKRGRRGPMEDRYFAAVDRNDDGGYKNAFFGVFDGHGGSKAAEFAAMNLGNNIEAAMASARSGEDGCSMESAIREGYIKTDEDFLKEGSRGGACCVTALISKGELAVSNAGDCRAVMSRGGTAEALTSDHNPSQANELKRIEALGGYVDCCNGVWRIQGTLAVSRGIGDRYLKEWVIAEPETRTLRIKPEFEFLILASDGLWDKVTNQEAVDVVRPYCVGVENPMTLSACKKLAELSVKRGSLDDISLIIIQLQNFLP

T2: YFPntd-AP2C3 (Arabidopsis) (UniProt Q9XEE8)
T2 sequence: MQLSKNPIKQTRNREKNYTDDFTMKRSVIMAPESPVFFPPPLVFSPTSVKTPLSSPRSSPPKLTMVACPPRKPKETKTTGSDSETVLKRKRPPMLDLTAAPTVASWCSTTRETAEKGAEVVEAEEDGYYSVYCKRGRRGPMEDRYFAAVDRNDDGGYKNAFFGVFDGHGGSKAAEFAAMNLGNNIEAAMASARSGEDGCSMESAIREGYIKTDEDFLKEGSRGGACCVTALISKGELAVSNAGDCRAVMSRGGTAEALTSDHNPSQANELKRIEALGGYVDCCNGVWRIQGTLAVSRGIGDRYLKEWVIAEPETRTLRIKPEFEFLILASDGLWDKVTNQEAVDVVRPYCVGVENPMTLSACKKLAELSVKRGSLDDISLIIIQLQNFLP

T3: AP2C3 in pBTM116 (Arabidopsis) (UniProt Q9XEE8)
T3 sequence: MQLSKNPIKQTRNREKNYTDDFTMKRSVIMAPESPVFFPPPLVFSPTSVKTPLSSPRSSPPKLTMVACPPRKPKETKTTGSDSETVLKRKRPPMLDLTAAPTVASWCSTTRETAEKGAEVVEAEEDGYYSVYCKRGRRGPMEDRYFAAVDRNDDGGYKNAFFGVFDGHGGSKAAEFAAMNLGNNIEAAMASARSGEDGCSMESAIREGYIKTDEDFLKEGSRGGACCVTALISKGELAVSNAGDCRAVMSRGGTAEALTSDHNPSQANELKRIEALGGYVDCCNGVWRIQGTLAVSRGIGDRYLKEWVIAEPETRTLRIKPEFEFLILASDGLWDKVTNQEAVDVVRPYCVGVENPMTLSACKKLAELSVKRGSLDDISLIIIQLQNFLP


Columns and labels:
[1] = molecular target: T1, AP2C3 (Arabidopsis protein phosphatase 2C) in pBD-GAL4cam (Arabidopsis); test: two-hybrid; pBD-GAL4cam-PP2C with pAD-MAPK vectors cotransformed in yeast strain PJ-69A (pJ694A in the legend); growth on selective plates
[2] = molecular target: T2, YFPntd-AP2C3 (Arabidopsis); test: split reporter; split-YFP BiFC; YFPntd-PP2Cs co-transfected with YFPctd-MAPKs in Arabidopsis suspension culture protoplasts, reconstituted fluorescence detected by microscopy
[3] = molecular target: T3, AP2C3 in pBTM116 (Arabidopsis); test: two-hybrid; quantitative beta-galactosidase measurements; pBTM116-AP2C3 with 18 MAPKs in the pGAD424 vector in L40 yeast cells

binding [2]	Molecule	further results
–	pAD-MPK6 (from UniProt Q39026 1-395) (enzyme)	binding [1]: binds
binds	YFPctd-MPK6 (from UniProt Q39026 1-395) (enzyme)	–
–	MPK6 in pGAD424 (from UniProt Q39026 1-395) (enzyme)	binding [3]: binds
binds	YFPctd-MPK3 (enzyme, UniProt Q39023 1-370) MNTGGGQYTDFPAVETHGGQFISYDIFGSLFEITSKYRPPIIPIGRGAYGIVCSVLDTETNELVAMKKIANAFDNHMDAKRTLREIKLLRHLDHENIIAIRDVVPPPLRRQFSDVYISTELMDTDLHQIIRSNQSLSEEHCQYFLYQLLRGLKYIHSANIIHRDLKPSNLLLNANCDLKICDFGLARPTSENDFMTEYVVTRWYRAPELLLNSSDYTAAIDVWSVGCIFMELMNRKPLFPGKDHVHQMRLLTELLGTPTESDLGFTHNEDAKRYIRQLPNFPRQPLAKLFSHVNPMAIDLVDRMLTFDPNRRITVEQALNHQYLAKLHDPNDEPICQKPFSFEFEQQPLDEEQIKEMIYQEAIALNPTYG	–
